From patent publication US20180298095A1
No constants are given. Whether binding was seen depends on the method and setting. Some results given as binding are weak or reduced against the parent protein; the word gives no strength.

By UniProt entry, the sequences of proteins in these tests, tags left out. Where a name states a change or a piece, a line headed by the entry shows the natural chain unless it says otherwise.
UniProt P13688: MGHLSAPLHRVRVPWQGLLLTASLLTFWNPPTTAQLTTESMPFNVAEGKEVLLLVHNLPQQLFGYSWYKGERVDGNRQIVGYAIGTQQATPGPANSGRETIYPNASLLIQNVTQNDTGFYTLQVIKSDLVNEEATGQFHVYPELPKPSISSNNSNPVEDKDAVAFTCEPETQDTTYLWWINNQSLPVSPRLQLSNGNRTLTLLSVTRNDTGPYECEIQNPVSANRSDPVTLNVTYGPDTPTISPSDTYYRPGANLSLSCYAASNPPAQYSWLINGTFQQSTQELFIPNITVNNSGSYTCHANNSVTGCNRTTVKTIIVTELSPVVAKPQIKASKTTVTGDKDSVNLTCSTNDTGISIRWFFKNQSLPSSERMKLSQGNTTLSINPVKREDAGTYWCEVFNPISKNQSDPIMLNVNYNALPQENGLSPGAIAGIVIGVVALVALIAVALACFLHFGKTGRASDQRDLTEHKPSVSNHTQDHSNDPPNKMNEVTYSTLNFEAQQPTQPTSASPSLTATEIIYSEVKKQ

Biological target: T1, human TIM-4 (human) (UniProt Q96H15)
T1 sequence: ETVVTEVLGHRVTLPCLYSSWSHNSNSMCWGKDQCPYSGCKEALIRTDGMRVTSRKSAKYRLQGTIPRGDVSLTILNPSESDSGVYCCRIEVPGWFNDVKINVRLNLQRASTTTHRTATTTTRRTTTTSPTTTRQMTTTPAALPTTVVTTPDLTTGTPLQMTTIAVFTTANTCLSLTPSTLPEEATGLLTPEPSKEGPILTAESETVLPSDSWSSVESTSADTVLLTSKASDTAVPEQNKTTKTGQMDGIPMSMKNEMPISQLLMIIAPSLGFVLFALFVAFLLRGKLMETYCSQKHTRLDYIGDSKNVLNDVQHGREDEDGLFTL
Test: method not described ('as demonstrated herein')

human CEACAM1 (from UniProt P13688 35-526) (receptor)
binding: binds
